Results: the supplement of paper PMC7580552
Counter-ions that a name gives are not always drawn. ± gives the standard deviation of the averaged measurements. Some of the results follow. Part of the spread comes from offsets between plates or batches.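 A K-12 lab model strain is cultured statically in 96-well plates; biofilm is measured as the absorbance of crystal violet stain retained in the wells. Drugs counted as candidate specific biofilm blockers if they strongly reduced staining while slowing planktonic growth by under 70%.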

The molecules below were run on Escherichia coli W3110 (assay: biofilm formation (crystal violet staining) relative to untreated control; higher = more biofilm). Settings: 10 µM; 20-24 h; 30 °C; TB.

Structure (SMILES)	biofilm formation [%]
Cc1ccc(O)c([C@H](CCN(C(C)C)C(C)C)c2ccccc2)c1 [Tolterodine tartrate]	61
O=C(O)c1cc(=O)c2c(OCC(O)COc3cccc4oc(C(=O)O)cc(=O)c34)cccc2o1 [Cromolyn disodium salt]	75
CCC(C)(C)c1ccc(CC(C)CN2C[C@@H](C)O[C@@H](C)C2)cc1 (stereo partly specified) [Amorolfine hydrochloride]	78
CCOC(=O)c1ccc(C#Cc2ccc3c(c2)C(C)(C)CCS3)nc1 [Tazarotene]	89
CC[C@]12CCCN3CCc4c(n(c5ccccc45)[C@@](O)(C(=O)OC)C1)[C@@H]32 [Vincamine]	57
Nc1ccc(S(N)(=O)=O)cc1 [Sulfanilamide]	70
CC(CCc1ccc(O)cc1)NCCc1ccc(O)c(O)c1 (stereo unspecified) [Dobutamine hydrochloride]	51
CNCC[C@@H](Oc1cccc2ccccc12)c1cccs1 [(R)-Duloxetine hydrochloride]	81
CC1=C(C(=O)O)N2C(=O)[C@@H](NC(=O)[C@H](N)c3ccc(O)cc3)[C@H]2SC1 [Cefadroxil]	79
C=CCN1CCCC1CNC(=O)c1cc2nn[nH]c2cc1OC (stereo unspecified) [Alizapride hydrochloride]	101
CC(C)(Oc1ccc(C2CC2(Cl)Cl)cc1)C(=O)O (stereo unspecified) [Ciprofibrate]	58
CC(=C(CCO)SSCC1CCCO1)N(C=O)Cc1cnc(C)nc1N (stereo in doubt) [Fursultiamine Hydrochloride]	82
CCC(C)(CN(C)C)OC(=O)c1ccccc1 (stereo unspecified) [Amyleine hydrochloride]	79
C=C(NC(=O)C(=C)NC(=O)c1csc(C2=N[C@@H]3c4csc(n4)[C@H]4NC(=O)c5csc(n5)[C@H]([C@](C)(O)[C@@H](C)O)NC(=O)[C@H]5CSC(=N5)/C(=C/C)NC(=O)[C@H]([C@@H](C)O)NC(=O)c5csc(n5)[C@]3(CC2)NC(=O)[C@H](C)NC(=O)C(=C)NC(=O)[C@H](C)NC(=O)[C@H]([C@@H](C)CC)N[C@@H]2C=Cc3c([C@H](C)O)cc(nc3[C@H]2O)C(=O)O[C@@H]4C)n1)C(N)=O [Thiostrepton]	54
Cn1c(=O)c2c(ncn2CC(O)CO)n(C)c1=O (stereo unspecified) [Diprophylline]	60
NC(=O)c1cccnc1 [Nicotinamide]	80
CNC1(C)C2CCC(C2)C1(C)C (stereo unspecified) [Mecamylamine hydrochloride]	62.5 ± 59
CC(CN1c2ccccc2Sc2ccccc21)N(C)C (stereo unspecified) [Promethazine hydrochloride]	59
NS(=O)(=O)c1cc2c(cc1C(F)(F)F)NC(Cc1ccccc1)NS2(=O)=O (stereo unspecified) [Bendroflumethiazide]	74
O=C(c1ccc(OCCN2CCCCC2)cc1)c1c(-c2ccc(O)cc2)sc2cc(O)ccc12 [Raloxifene hydrochloride]	59
CCn1cc(C(=O)O)c(=O)c2cc(F)c(N3CCNCC3)cc21 [Norfloxacin]	15
CCOC(=O)C1=C(C)NC(C)=C(C(=O)OC)C1c1cccc([N+](=O)[O-])c1 (stereo unspecified) [Nitrendipine]	53
CC1CCc2cc(F)cc3c(=O)c(C(=O)O)cn1c23 (stereo unspecified) [Flumequine]	3

Structure (SMILES)	biofilm formation [%]
O=C(NCC1CCCCN1)c1cc(OCC(F)(F)F)ccc1OCC(F)(F)F (stereo unspecified) [Flecainide acetate]	65
CCCCOc1ccc(OCCCN2CCOCC2)cc1 [Pramoxine hydrochloride]	80
CC(C)[C@H]1CC[C@H](C(=O)N[C@H](Cc2ccccc2)C(=O)O)CC1 [Nateglinide]	75
COc1ccccc1OCCNCC(O)COc1cccc2[nH]c3ccccc3c12 (stereo unspecified) [Carvedilol]	73
CC(C)c1nc(CN(C)C(=O)N[C@H](C(=O)N[C@@H](Cc2ccccc2)C[C@H](O)[C@H](Cc2ccccc2)NC(=O)OCc2cncs2)C(C)C)cs1 [Ritonavir]	87
COc1cc(N)c(Cl)cc1C(=O)NC1CCN(Cc2ccccc2)CC1 [Clebopride maleate]	85
CCN1CCCC1CNC(=O)c1cc(S(=O)(=O)CC)c(N)cc1OC (stereo unspecified) [Amisulpride]	94
Nc1nc(N)nc(-c2cc(Cl)ccc2Cl)n1 [Irsogladine maleate]	71
Cc1c(OCC(F)(F)F)ccnc1C[S+]([O-])c1nc2ccccc2[nH]1 (stereo unspecified) [Lansoprazole]	62
Cn1c(=O)c2c(ncn2C)n(C)c1=O [Caffeine]	75
CC(C)(C)NCC(O)c1ccc(O)c(CO)c1 (stereo unspecified) [Salbutamol]	75
CC(C)(C)NC(=O)[C@@H]1CN(Cc2cccnc2)CCN1C[C@@H](O)C[C@@H](Cc1ccccc1)C(=O)N[C@H]1c2ccccc2C[C@H]1O [Indinavir sulfate]	74
O=C(O[C@@H]1C[C@@H]2C[C@H]3C[C@H](C1)N2CC3=O)c1c[nH]c2ccccc12 [Dolasetron mesilate]	73
COC(=O)Nc1nc2cc(C(=O)c3ccc(F)cc3)ccc2[nH]1 [Flubendazol]	50.5 ± 3.5
COC1=CC(=O)C[C@@H](C)[C@]12Oc1c(Cl)c(OC)cc(OC)c1C2=O [Griseofulvin]	70
CN(C)CCC(c1ccc(Cl)cc1)c1ccccn1 (stereo unspecified) [Chlorpheniramine maleate]	36
COc1cc(N)c(Cl)cc1C(=O)NC1CCN(CCCOc2ccc(F)cc2)CC1OC (stereo unspecified) [Cisapride]	94
CN(C)CCCC1(c2ccc(F)cc2)OCc2cc(C#N)ccc21 (stereo unspecified) [Citalopram Hydrobromide]	75
CCCC(CCC)C(=O)O [Valproic acid]	51
O=C(O)CNC(=O)C(CS)Cc1ccccc1 (stereo unspecified) [Thiorphan]	91
Cc1onc(-c2ccccc2)c1C(=O)N[C@@H]1C(=O)N2[C@@H]1SC(C)(C)[C@@H]2C(=O)O [Oxacillin sodium]	47
COc1ccc2c(c1)C(=O)N(CCc1ccc(S(=O)(=O)NC(=O)NC3CCCCC3)cc1)C(=O)C2(C)C [Gliquidone]	74
CN(C)CCN(Cc1ccc(Cl)cc1)c1ccccn1 [Chloropyramine hydrochloride]	74

Grouped by structure, the entries above with an aryl methoxy group
Structure (SMILES)	biofilm formation [%]
C=CCN1CCCC1CNC(=O)c1cc2nn[nH]c2cc1OC (stereo unspecified) [Alizapride hydrochloride]	101
COc1ccccc1OCCNCC(O)COc1cccc2[nH]c3ccccc3c12 (stereo unspecified) [Carvedilol]	73
COc1cc(N)c(Cl)cc1C(=O)NC1CCN(Cc2ccccc2)CC1 [Clebopride maleate]	85
CCN1CCCC1CNC(=O)c1cc(S(=O)(=O)CC)c(N)cc1OC (stereo unspecified) [Amisulpride]	94
COC1=CC(=O)C[C@@H](C)[C@]12Oc1c(Cl)c(OC)cc(OC)c1C2=O [Griseofulvin]	70
COc1cc(N)c(Cl)cc1C(=O)NC1CCN(CCCOc2ccc(F)cc2)CC1OC (stereo unspecified) [Cisapride]	94
COc1ccc2c(c1)C(=O)N(CCc1ccc(S(=O)(=O)NC(=O)NC3CCCCC3)cc1)C(=O)C2(C)C [Gliquidone]	74
